Reference: publication PMC6593404

Amino acid sequences for entries named in this document (tags omitted).
UniProt A0QP27: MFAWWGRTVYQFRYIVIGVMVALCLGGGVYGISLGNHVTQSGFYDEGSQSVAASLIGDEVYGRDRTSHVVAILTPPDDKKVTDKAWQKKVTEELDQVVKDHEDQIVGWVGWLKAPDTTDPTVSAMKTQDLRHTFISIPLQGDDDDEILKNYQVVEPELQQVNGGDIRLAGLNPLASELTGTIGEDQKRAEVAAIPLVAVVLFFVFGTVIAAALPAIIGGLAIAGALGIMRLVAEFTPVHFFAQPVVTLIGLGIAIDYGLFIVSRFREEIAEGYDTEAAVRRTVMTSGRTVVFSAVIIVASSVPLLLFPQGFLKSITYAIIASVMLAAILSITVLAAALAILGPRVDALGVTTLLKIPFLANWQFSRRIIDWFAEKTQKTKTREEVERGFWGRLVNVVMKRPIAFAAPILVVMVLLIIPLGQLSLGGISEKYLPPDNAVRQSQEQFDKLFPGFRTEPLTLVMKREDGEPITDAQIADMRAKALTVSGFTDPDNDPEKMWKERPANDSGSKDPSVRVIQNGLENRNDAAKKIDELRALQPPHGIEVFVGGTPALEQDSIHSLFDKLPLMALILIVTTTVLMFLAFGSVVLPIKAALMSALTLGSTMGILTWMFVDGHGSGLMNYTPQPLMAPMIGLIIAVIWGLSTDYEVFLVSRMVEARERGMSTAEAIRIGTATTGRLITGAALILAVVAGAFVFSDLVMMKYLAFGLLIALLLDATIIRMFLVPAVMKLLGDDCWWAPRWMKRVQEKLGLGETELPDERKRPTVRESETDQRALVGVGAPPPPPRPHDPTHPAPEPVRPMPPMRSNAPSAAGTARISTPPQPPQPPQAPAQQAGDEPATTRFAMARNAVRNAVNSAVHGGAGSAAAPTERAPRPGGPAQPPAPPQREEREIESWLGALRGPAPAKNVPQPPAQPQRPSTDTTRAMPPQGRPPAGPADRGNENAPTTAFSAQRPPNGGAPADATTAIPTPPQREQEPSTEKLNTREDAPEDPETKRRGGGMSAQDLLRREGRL

Experiments:
[1] = biological target: T1, MSMEG_0736 (TtfA)-msfGFP, full length (Mycobacterium smegmatis) (UniProt A0QQF4); assay: affinity purification with mass spectrom
T1 sequence: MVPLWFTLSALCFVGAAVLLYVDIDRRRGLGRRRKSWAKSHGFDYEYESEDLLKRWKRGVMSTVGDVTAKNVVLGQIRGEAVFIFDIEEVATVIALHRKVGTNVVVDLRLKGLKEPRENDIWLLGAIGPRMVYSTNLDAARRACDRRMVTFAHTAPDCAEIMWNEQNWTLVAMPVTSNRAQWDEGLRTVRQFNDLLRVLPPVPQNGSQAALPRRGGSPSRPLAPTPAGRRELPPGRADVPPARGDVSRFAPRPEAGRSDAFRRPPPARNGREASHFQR

[2] = biological target: T1, MSMEG_0736 (TtfA)-msfGFP, full length (Mycobacterium smegmatis); assay: affinity purification with mass spectrometry; msfGFP-tagged bait captured on GFP-Trap_MA beads (anti-GFP nanobody) from membranes solubilized in 1% DDM, 50 mM Tris-HCl pH 7.5, 150 mM NaCl, 4°C; washed with 0.2% DDM; eluates by shotgun mass spectrometry (in a replicate an excised gel band)
[3] = biological target: MmpL10 (MSMEG_0410)-msfGFP (Mycobacterium smegmatis); assay: as above
[4] = biological target: MmpL3-msfGFP (MSMEG_0250 with C-terminal monomeric superfolder GFP) (Mycobacterium smegmatis) (UniProt A0QP27); assay: as above

Molecule: VirR (vesiculogenesis regulator), M. smegmatis protein found in MsTtfA purifications
- binding [1]: binds

Molecule: MmpL3 (MSMEG_0250), untagged (from UniProt A0QP27 1-1013)
- binding [2]: binds

B1: MSMEG_0736 (TMM transport factor A, TtfA), untagged (protein, UniProt A0QQF4 1-278)
chain: T1 sequence
- binding [3]: no binding
- binding [4]: binds

B2: MSMEG_5308, untagged (protein, UniProt A0R316 1-368)
chain: MTMAKNILRAITAIVRRDAKTPDTDDSAGSVTFDGALDDLDVAGLVEVGRGPIADIAIDADRETIVVTNSAADCLTVINPYTLAPVGSVRLNGEPFAVAAADDRAYVSVVTAGHDAIKVVDTITGSVLAEYPLAMTVTALAMSPDGKRVFVGRSGHDRIDVAVIDTAAERVGTIDLASGAGAGVDALRVDASGKRLYVATTDPRGSRMVTVNIETAQIESTVWIGAPIRDLALGADGKALVLTSDRQRRGVVHIVDLSTAAVVGAIQIGGAPTQLVLSPDATRAYVVDYDRVIVLCTLTNEILGSIDVGMQPAAVAVRRDGARVYVADYSGQVNAFDVAAELPALYSRLVASEPRQDATTVLPSLQTA
- binding [3]: no binding
- binding [2]: binds

No constants are given. Whether binding was seen depends on the method and setting. In cells and extracts the contact can be indirect. These calls come from enrichment with a bait or labelling near it, and not all partners need be listed. For part of these data: A no says only that the protein was not detected with the bait. Sequences can lack the tags named with a protein.
